Values quoted from earlier work in patent US8143236B2, “Chemoprotective methods” (BioNumerik Pharmaceuticals, Inc., priority 2006, dated 2012).

Conditions: in vitro; cited from earlier work

O=S(=O)(O)CCS [mesna, 2-mercapto ethane sulfonate sodium, reference compound]
direct reaction with paclitaxel: does not directly react

O=S(=O)([O-])CCSSCCS(=O)(=O)[O-].[Na+].[Na+] [Tavocept™, disodium 2,2′-dithio-bis-ethane sulfonate]
direct reaction with paclitaxel: does not directly react
